Experimental findings from the supplement of paper PMC7858590 are described below.

“And” between values parts separate entries of the source, which are not always exact repeats. Identical values can stand only once. ± gives the standard deviation of the averaged measurements. In all, about 3,800 compounds were measured (“cell shape (eccentricity) Z-score vs DMSO control”: median about 1.1, lowest 2% from about -4.7 on). The list shows a part of the results.

The experiment concerns human monocyte-derived macrophages (M0). As to the kind of experiment: cell shape (eccentricity) Z-score vs DMSO control; higher = more elongated, M2-like morphology. Particulars: 20 µM; 24 h; macrophage state: M0 (M-CSF).
On to `O=S(=O)(O)c1cc(I)c(O)c2ncccc12`, for which the “cell shape (Z-score)” value was determined as 3.55.
Consider `CC(=O)OC1CCC2C3CCc4cc(O)ccc4C3CCC12C` (stereo unspecified), for which the “cell shape (Z-score)” value was found to be 1.45.
As for `COc1cc2c(cc1OC)C1Cc3ccc(OC)c(OC)c3CN1CC2` (stereo unspecified), the “cell shape (Z-score)” value turned out to be 3.9.
Consider `CC1OC(OC2C(O[C@H]3OC[C@](O)(CO)[C@H]3O)COC(O[C@@H]3[C@@H](O)[C@@H](O)[C@H](OC4C(OC(=O)[C@]56CCC(C)(C)CC5C5=CCC7[C@@]8(C)C[C@H](O)[C@H](OC9OC(CO)C(O)C(O)C9O)[C@@](C)(CO)C8[C@H](O)C[C@@]7(C)[C@]5(C)CC6)OCC(O)C4O)O[C@H]3C)C2O)C(O)C(O)C1O` (stereo partly specified), for which the “cell shape (Z-score)” value was -5.84.
As for `OC(CN1CCNCC1)Cn1c2ccc(Br)cc2c2cc(Br)ccc21` (stereo unspecified), the figure is -4.09; as for `O=C1C(=O)C([C@H]2CC[C@H](c3ccc(Cl)cc3)CC2)C(=O)c2ccccc21` (stereo partly specified), 0.59 ± 2.
As for `CC(C)NCC(O)COc1ccc(COCCOC(C)C)cc1` (stereo unspecified), the figure is -0.551.
As for `COC(=O)c1cc(S(C)(=O)=O)ccc1OC`, the figure is 1.25; as for `C[C@@H]1O[C@@H](O[C@H]2[C@@H](O)[C@@H](C)O[C@@H](O[C@H]3[C@H](O)[C@@H](O)[C@H](O[C@H]4CC[C@@]5(C)C(CC[C@]6(C)C5C=CC5=C7CC(C)(C)CC[C@]7(CO)CC[C@]56C)[C@]4(C)CO)O[C@@H]3CO)[C@@H]2O[C@@H]2O[C@H](CO)[C@@H](O)[C@H](O)[C@H]2O)[C@H](O)[C@H](O)[C@H]1O` (stereo partly specified), -1.32; as for `CC(C)=CCC/C(C)=C/CC(O)/C(C)=C/Cc1cc(C(=O)O)ccc1O` (stereo unspecified), -0.302 ± 2.4.
As to `CSc1ccc2c(c1)N(CCC1CCCCN1C)c1ccccc1S2` (stereo unspecified), the “cell shape (Z-score)” value was determined as 2.4.
As for `COC(=O)C1(Cc2ccc(O)c(CC=C(C)C)c2)OC(=O)C(OC)=C1c1ccc(O)c(O)c1` (stereo unspecified), the figure is 2.56; as for `C[C@@H]1CN([C@H](C)CO)S(=O)(=O)c2ccc(C#Cc3ccncc3)cc2O[C@H]1CN(C)C(=O)Nc1ccc2c(c1)OCO2`, 3.81.
The figure for `O=C1CCC(N2C(=O)c3ccccc3C2=O)C(=O)N1` (stereo unspecified) is 1.24 and 2.65; for `OCc1cc(C(O)CNCCCCCCOCCCCc2ccccc2)ccc1O` (stereo unspecified) it is 2.86.
As for `COC(=O)c1cc(O)cc(OC)c1C(=O)c1c(O)cc(C)cc1O`, the figure is -0.654 ± 0.67.
For `CO[C@@H]1C=C[C@@]23c4cc5c(cc4CN(CC2O)[C@H]3C1)OCO5` (stereo partly specified), the “cell shape (Z-score)” value is -3.22.
As for `COc1cc(-c2cc(=O)c3c(O)c(OC)c(OC)c(OC)c3o2)cc(OC)c1OC`, the figure is 1.41 ± 0.82.
As for `CN1CCc2ccccc2Cc2[nH]c3ccccc3c2CC1`, the figure is 1.9; as for `CC1CC(=O)c2cc(O)c(O)cc2C1` (stereo unspecified), 1.47 ± 2.1; as for `COC(=O)C1=C[C@@H](O)[C@@H](O)[C@H](O[C@@H]2O[C@H](CO)[C@@H](O)[C@H](O)[C@H]2OC(=O)/C=C/c2ccccc2)C1`, 3.28.
The figure for `C[C@@H]1O[C@@H](OC[C@H]2O[C@@H](OCCc3ccc(O)c(O)c3)[C@H](O)[C@@H](O)[C@@H]2OC(=O)/C=C/c2ccc(O)c(O)c2)[C@H](O)[C@H](O)[C@H]1O` is 0.476; for `Cn1c(=O)c2[nH]cnc2n(C)c1=O` it is -1.79; for `C/C(=C\C(=O)O)CCC1C(C)(O)CCC2C(C)(CO)CCCC12C` (stereo unspecified) it is 2.12 ± 2.3.
`C=C1C(NC)CCC23CC24CCC2(C)C(C(C)N(C)C(C)=O)C(O)CC2(C)C4CCC13` (stereo unspecified): the “cell shape (Z-score)” value was -0.492.
`O=C(N[C@H](COC(=O)[C@H](Cc1ccccc1)NC(=O)c1ccccc1)Cc1ccccc1)c1ccccc1`: the “cell shape (Z-score)” value was determined as 1.44.
The figure for `CCOC(=O)[C@H](CCc1ccccc1)N[C@H]1CCCN2CCC[C@@H](C(=O)O)N2C1=O` is 2.15.
For the compound `CC(=O)c1ccc2c(c1)N(CCCN(C)C)c1ccccc1S2`, the “cell shape (Z-score)” value was 3.27.
As for `O=C(O)[C@H](Cc1c[nH]c2ccccc12)N1C(=O)c2ccccc2C1=O`, the figure is 2.94; as for `CS(=O)(=O)c1ccc([C@@H](O)[C@@H](CO)NC(=O)C(Cl)Cl)cc1`, -1.18; as for `COc1ccc(-c2coc3c(O)c(O)c(OC)cc3c2=O)cc1`, 2.32.
Regarding `CN(C)CCN(Cc1cccs1)c1ccccn1`, the “cell shape (Z-score)” value worked out at 2.95.
The figure for `CS(=O)(=O)c1ccc(-c2cc(Br)sc2-c2ccc(F)cc2)cc1` is 1.89.
As for `COc1cc2nc3occc3c(OC)c2cc1OCC(OC(C)=O)C(C)(C)OC(C)=O` (stereo unspecified), the figure is 0.556.
The figure for `CNc1cc(NS(=O)(=O)c2ccc(N)cc2)nc(NC)n1` is 3.31; for `CN1C(=O)CC[C@H]1c1cccnc1` it is -0.452.
In the case of `CC(NC(=NC#N)Nc1ccncc1)C(C)(C)C` (stereo unspecified), the “cell shape (Z-score)” value amounted to 0.258.
As for `COc1cc2ncnc(Nc3ccc(Cl)cc3F)c2cc1OC`, the figure is -0.304.
The figure for `Oc1ccc(C2CNCCc3c2cc(O)c(O)c3Cl)cc1` (stereo unspecified) is 1.75.
As for `COc1ccc2c(c1)O[C@H]1c3ccc(OC)cc3OC[C@@H]21`, the figure is 3.09; as for `CNc1cc2ncnc(Nc3cccc(Br)c3)c2cc1N`, 1.73; as for `C=C1CC2C3C=C(C)C4=CC(=O)CC[C@]4(C)C3CC[C@]2(C)[C@@]1(OC(C)=O)C(C)=O` (stereo partly specified), 0.0296.
As to `CC1OC(O[C@H]2[C@@H](O)C[C@@]3(C)C([C@H](O)C[C@]4(C)C3CC=C3[C@@H]5CC(C)(C)CC[C@]5(C(=O)OC5OC(C)C(OC6OCC(OC7OCC(O)C(OC8OCC(O)C(O)C8O)C7O)C(O)C6O)C(O)C5O)CC[C@]34C)[C@]2(C)CO)C(O)C(OC2OC(CO)C(O)C(O)C2O)C1O` (stereo partly specified), the “cell shape (Z-score)” value worked out at 0.543.
Take `COc1cc(OC)c(C(=O)/C=C/c2ccccc2)c(O)c1O`: the “cell shape (Z-score)” value was determined as 0.621.
As for `C[C@@H]1O[C@@H](Oc2cc(O)c3c(=O)c(O[C@@H]4O[C@@H](C)[C@H](O)[C@@H](O[C@@H]5OC[C@@H](O)[C@H](O)[C@H]5O)[C@H]4O[C@@H]4O[C@H](CO)[C@@H](O)[C@H](O)[C@H]4O)c(-c4ccc(O)cc4)oc3c2)[C@H](O)[C@H](O)[C@H]1O`, the figure is 1.14; as for `CN(CCOc1ccc(NS(C)(=O)=O)cc1)CCc1ccc(NS(C)(=O)=O)cc1`, -1.6; as for `CCCCCCN(CCCCCC)C(=O)Cc1c(-c2ccc(F)cc2)[nH]c2ccccc12`, 5.07.
As to `COC1=C(N)C(=O)c2nc(-c3nc(C(=O)O)c(C)c(-c4ccc(OC)c(OC)c4O)c3N)ccc2C1=O`, the “cell shape (Z-score)” value turned out to be 0.0737.
On to `C=C[C@](C)(CC[C@@]1(C)[C@H](C)C[C@H](O[C@@H]2O[C@@H](C)[C@H](O[C@@H]3O[C@H](COC(C)=O)[C@@H](O)[C@H](O)[C@H]3O)[C@@H](O)[C@H]2O)[C@@]2(C)C(C)=CCC[C@H]12)O[C@@H]1O[C@H](C)[C@H](O[C@@H]2O[C@@H](C)[C@H](O)[C@@H](O)[C@H]2O)[C@H](O)[C@H]1O`, for which the “cell shape (Z-score)” value was -0.272.
The figure for `CC[C@H]1OC(=O)[C@H](C)[C@@H](O[C@H]2C[C@@](C)(OC)[C@@H](O)[C@H](C)O2)[C@H](C)[C@@H](O[C@@H]2O[C@H](C)C[C@H](N(C)C)[C@H]2O)[C@](C)(OC)C[C@@H](C)C(=O)[C@H](C)[C@@H](O)[C@]1(C)O` is -0.775; for `C=C1c2cccc(O)c2C(=O)C2C(=O)[C@]3(O)C(=O)C(C(N)=O)C(=O)[C@@H](N(C)C)[C@@H]3[C@@H](O)[C@H]12` (stereo partly specified) it is 3.6.
As for `CCC(c1ccc(O)cc1)C(CC)c1ccc(O)cc1` (stereo unspecified), the figure is 1.37; as for `C=C[C@@]1(C)CC(=O)[C@@]2(O)[C@](C)(O1)[C@@H](OC(C)=O)[C@@H](O)C1C(C)(C)CC[C@H](O)[C@@]12C` (stereo partly specified), 6.05; as for `CC(C)NCC(O)c1ccc(NS(C)(=O)=O)cc1` (stereo unspecified), 1.52.
The figure for `O=c1c(O)c(-c2ccccc2)oc2cc(O)ccc12` is 2.46.
Regarding `C[C@]12C=CC(=O)C=C1CCC1C2[C@@H](O)C[C@@]2(C)C1CC[C@]2(O)C(=O)COP(=O)(O)O` (stereo partly specified), the “cell shape (Z-score)” value was -1.89.
The figure for `Cc1nc(C)c(Cl)c(O)c1Cl` is 0.0276.
As for `C[C@H]1CC(O)C23COC(=O)[C@@H]2CCC[C@@H]3[C@@]12C[C@@H](c1ccoc1)OC2=O` (stereo partly specified), the figure is 4.06; as for `COc1cc2nc(N3CCN(C(=O)C4COc5ccccc5O4)CC3)nc(N)c2cc1OC` (stereo unspecified), 0.101.
The figure for `CCN(CC)CCCC(C)Nc1c2ccc(Cl)cc2nc2ccc(OC)cc12` (stereo unspecified) is 3.34; for `COc1cc(C)c2c(c1C=O)Oc1c(c(C)c(O)c3c1C(O)OC3=O)OC2=O` (stereo unspecified) it is -1.59; for `C=CCc1ccc(O)c(-c2ccc(O)c(CC=C)c2)c1` it is 0.0605.
For `CC1(C)CC[C@]2(C(=O)O)CC[C@]3(C)C(=CCC4[C@@]5(C)C[C@@H](O)[C@H](O)C(CO)(CO)C5CC[C@]43C)C2[C@@H]1O` (stereo partly specified), the “cell shape (Z-score)” value was determined as 1.72.
As for `CN(C)CC/C=C1\c2ccccc2Sc2ccc(Cl)cc21`, the figure is 1.96.
As for `Nc1ccccc1NC(=O)c1ccc(CNc2nccc(-c3cccnc3)n2)cc1`, the figure is -11.8; as for `O=C(COc1c(Cl)cc(Cl)cc1Cl)N/N=C/c1ccc[nH]1`, 2.78; as for `O=C(CC(=O)c1ccc(O)cc1)OC[C@H]1O[C@@H](Oc2ccc(O)cc2)[C@H](OC(=O)c2ccc(O)cc2)[C@@H](O)[C@@H]1O`, -0.615.
As for `CCCCn1c(=O)c2[nH]c(C34CC5CC(CC3C5)C4)nc2n(CCCO)c1=O`, the figure is -0.852; as for `O=C1OC(OC(=O)c2cccnc2Nc2cccc(C(F)(F)F)c2)c2ccccc21` (stereo unspecified), 2.97; as for `COC(=O)[C@@]12CCC(C)(C)C[C@@H]1[C@@H]1C(=O)C=C3[C@]4(C)C=C(C#N)C(=O)C(C)(C)[C@H]4CC[C@]3(C)[C@@]1(C)CC2`, -1.78.
For `C#C[C@]1(O)CCC2C3CCC4=CC(=O)CC[C@@H]4C3CC[C@@]21C` (stereo partly specified), the “cell shape (Z-score)” value was 1.56.
For the compound `CCN(CC)CCCCC1CCN(CC(=O)N2c3ccccc3C(=O)Nc3cccnc32)CC1`, the “cell shape (Z-score)” value was 2.23.
The figure for `CCCC1O[C@@H]2CC3C4CCC5=CC(=O)C=CC5(C)C4[C@@H](O)CC3(C)[C@]2(C(=O)CO)O1` (stereo partly specified) is 2.13; for `C[C@@H]1O[C@@H](O[C@H]2[C@@H]3C=CO[C@@H](O[C@@H]4O[C@H](CO)[C@@H](O)[C@H](O)[C@H]4O)[C@@H]3[C@@]3(CO)O[C@@H]23)[C@H](OC(=O)/C=C/c2ccccc2)[C@H](OC(=O)/C=C/c2ccccc2)[C@H]1O` it is 0.104 ± 3.2; for `Cc1cc(C)c(CNC(=O)c2cc(-c3ccc(N4CCNCC4)nc3)cc3c2cnn3C(C)C)c(=O)[nH]1` it is 3.48.
With `CC1(C)CC[C@@]2(C(=O)O[C@@H]3O[C@H](CO)[C@@H](O)[C@H](O)[C@H]3O)C(C1)C1=CCC3[C@@]4(C)CC[C@@H](O[C@@H]5O[C@H](CO)[C@@H](O)[C@H](O)[C@H]5O[C@@H]5O[C@H](CO)[C@@H](O)[C@H](O)[C@H]5O)C(C)(C)C4CC[C@@]3(C)[C@]1(C)C[C@H]2O` (stereo partly specified), the “cell shape (Z-score)” value amounted to 0.124 ± 0.97.
